Assay results

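Vaccinia-infected cells with a two-color viral stage reporter; Venus fluorescence read on a plate reader; the cell line is not named here; timing not stated here. The test concentration is not given here. Percent change in Venus reporter signal; lower (more negative) values mean stronger inhibition of that viral stage.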

Values are in %. How 0% and 100% were set is not given here. Common to all entries: measured here: Venus reporter, other viral stage. This is a side read-out of the assay, for part of the compounds, not drawn at random.

Cc1cccc(S(=O)(=O)N(C)C[C@H]2OCc3ccccc3-c3c(n(C)c4ccccc34)C(=O)N([C@H](C)CO)C[C@H]2C)c1 read activity change (Venus) -74.45%.
Cc1cccc(S(=O)(=O)N2C[C@@H]3N[C@H](C2)C3c2ccc(-c3ccncc3)cc2)c1 (stereo partly shown) read activity change (Venus) -50.51%.
Cc1ccc(S(=O)(=O)Nc2ccc3c(c2)C(=O)N([C@@H](C)CO)C[C@@H](C)[C@H](CN(C)S(=O)(=O)c2ccccc2)OCCCC[C@@H](C)O3)cc1 read activity change (Venus) -41.54%.
C[C@@H]1CN([C@@H](C)CO)C(=O)c2cc(C3=CCCCC3)cnc2O[C@H]1CN(C)Cc1ccccc1 read activity change (Venus) -21.37%.
COc1ccc([Si](C)(C)[C@@H]2[C@@H](CC(=O)N(CCO)Cc3ccccc3)O[C@]3(C(=O)N(C)c4ccccc43)[C@H]2C)cc1 read activity change (Venus) -53.88%.
Cc1cccc(S(=O)(=O)N2C[C@@H]3N[C@H](C2)C3c2ccc(-c3cccnc3)cc2)c1 (stereo partly shown) read activity change (Venus) -37.81%.
CC(C)CC#Cc1ccc2c(c1)O[C@H](CN(C)Cc1cncnc1)[C@H](C)CN([C@H](C)CO)S2(=O)=O read activity change (Venus) -31.42%.
C[C@@H]1CN([C@@H](C)CO)C(=O)c2cc(-c3cccnc3)cnc2O[C@H]1CN(C)Cc1ccc(Oc2ccccc2)cc1 read activity change (Venus) -42.29%.
COc1ccc(NC(=O)Nc2ccc3c(c2)C(=O)N([C@@H](C)CO)C[C@H](C)[C@H](CN(C)Cc2ccccc2)OCCCC[C@H](C)O3)cc1 read activity change (Venus) -77.64%.
C[C@H](CO)N1C[C@H](C)[C@H](CN(C)S(=O)(=O)c2ccccc2)Oc2cc(C#Cc3ccncc3)ccc2S1(=O)=O read activity change (Venus) -21.9%.
CC(C)NC(=O)Nc1ccc2c(c1)CC(=O)N([C@H](C)CO)C[C@@H](C)[C@@H](CN(C)Cc1ccc(Oc3ccccc3)cc1)O2 read activity change (Venus) -34.88%.
O=C(c1ccc(F)cc1)N1CC(=O)N2[C@H](C1)[C@H](c1ccc(C#CC3CCCCC3)cc1)[C@@H]2CO read activity change (Venus) -28.44%.
C/C=C/c1ccc(C2[C@@H]3CN(C(=O)C4CC4)C[C@H]2N3)cc1 (stereo partly shown) read activity change (Venus) -57.8%.
COc1ccc(C#Cc2ccc([C@@H]3[C@H](CO)N4CCCCN(S(=O)(=O)c5ccccc5)C[C@@H]34)cc2)cc1 read activity change (Venus) -22.89%.
C[C@@H]1CN([C@@H](C)CO)S(=O)(=O)c2ccc(C3=CCCCC3)cc2O[C@@H]1CN(C)C(=O)Cc1ccncc1 read activity change (Venus) -34.31%.
COc1ccc2c3c([nH]c2c1)[C@H](CO)N(C(=O)Nc1cccc(F)c1)CC31CN(CC2CC2)C1 read activity change (Venus) -47.7%.
C[C@@H]1CN([C@@H](C)CO)S(=O)(=O)c2ccc(-c3ccc(C#N)cc3)cc2O[C@@H]1CN(C)Cc1cccc(F)c1 read activity change (Venus) -43.98%.
CC(C)CC#Cc1ccc2c(c1)O[C@H](CN(C)C(=O)C1CCC1)[C@@H](C)CN([C@@H](C)CO)S2(=O)=O read activity change (Venus) -40.07%.
C[C@@H]1CN([C@H](C)CO)C(=O)c2cccc(NC(=O)Nc3ccc(C(F)(F)F)cc3)c2O[C@H]1CN(C)C(=O)NC1CCCCC1 read activity change (Venus) -42.74%.
CN(C)C(=O)c1ccc(-c2ccc(C3[C@@H]4CN(Cc5nccs5)C[C@H]3N4)cc2)cc1 (stereo partly shown) read activity change (Venus) -37.31%.
Cc1ccc(S(=O)(=O)N(C)C[C@H]2OCCCC[C@H](C)Oc3ccc(NS(=O)(=O)c4cccs4)cc3C(=O)N([C@H](C)CO)C[C@@H]2C)cc1 read activity change (Venus) -42.54%.
C[C@H]1CN([C@@H](C)CO)C(=O)Cc2cc(NC(=O)Cc3ccccc3)ccc2O[C@@H]1CN(C)Cc1ccc(C(F)(F)F)cc1 read activity change (Venus) -33.7%.
C[C@H]1CN([C@@H](C)CO)C(=O)Cc2cc(NC(=O)Nc3ccc(F)cc3)ccc2O[C@H]1CN(C)Cc1ccccc1 read activity change (Venus) -26.5%.
CN1c2ccc(C3=CCCCC3)cc2[C@H]2[C@H](CCN2C(=O)C2CCCCC2)[C@@H]1CO read activity change (Venus) -27.81%.
C[C@@H]1CN([C@@H](C)CO)C(=O)c2cc(NC(=O)Cc3ccccc3)ccc2O[C@@H](C)CCCCO[C@H]1CN(C)Cc1ccc2c(c1)OCO2 read activity change (Venus) -41.17%.
C[C@@H]1CN([C@@H](C)CO)S(=O)(=O)c2ccc(C#Cc3ccccc3)cc2O[C@@H]1CN(C)C read activity change (Venus) -38.04%.
CCCC#Cc1ccc2c(c1)O[C@@H](CN(C)Cc1ccncc1)[C@H](C)CN([C@@H](C)CO)S2(=O)=O read activity change (Venus) -51.04%.
COc1ccccc1-c1cnc2c(c1)C(=O)N([C@@H](C)CO)C[C@@H](C)[C@H](CN(C)Cc1ccc(F)cc1)O2 read activity change (Venus) -56.02%.
COc1cccc(-c2ccc3c(c2)[C@@H]2[C@@H](CCN2C(=O)C2CCCC2)[C@H](CO)N3)c1 read activity change (Venus) -31.87%.

Some entries from above, unchanged:

compound	activity change (Venus) (%)
COc1ccccc1-c1cnc2c(c1)C(=O)N([C@@H](C)CO)C[C@@H](C)[C@H](CN(C)Cc1ccc(F)cc1)O2	-56.02
COc1ccc2c3c([nH]c2c1)[C@H](CO)N(C(=O)Nc1cccc(F)c1)CC31CN(CC2CC2)C1	-47.7
CCCC#Cc1ccc2c(c1)O[C@@H](CN(C)Cc1ccncc1)[C@H](C)CN([C@@H](C)CO)S2(=O)=O	-51.04
Cc1cccc(S(=O)(=O)N2C[C@@H]3N[C@H](C2)C3c2ccc(-c3ccncc3)cc2)c1 (stereo partly shown)	-50.51

The results are deposited in PubChem (AID1053133; Broad Institute, 2014).